# Results reported in the supplement of paper PMC4635364.
# Structures can show the parent of a compound that is named as a salt. This is one part of the list. Single values are uncertain here, since repeats match poorly.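 Cells: ReNCell VM human fetal ventral-midbrain neural progenitors, differentiated mitogen-free. Blinded raters compared doublecortin-stained (early neurons) or tyrosine hydroxylase-stained (dopaminergic neurons) images with untreated wells, where 0 means no change. After repeats and both raters were averaged, compounds scoring 2 or above became hits for retesting.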
# Test system: ReNCell VM
# Experiment: neuronal differentiation score (DCX+ cell fraction vs untreated, manual image score) (score (-3 to 3)); higher = more neuronal differentiation
# Settings: library: LOPAC; 2 uM; 2 weeks
row,Compound,neuronal differentiation score
1,O=C(O)Cc1ccccc1Nc1c(Cl)cccc1Cl [Diclofenac sodium],inactive: 0
2,O=C(O)c1cc(=O)c2ccccc2[nH]1 [Kynurenic acid],inactive: 0
3,CN(C)CCC=C1c2ccccc2C=Cc2ccccc21 [Cyclobenzaprine hydrochloride],inactive: 1
4,Nc1nc2ccc(Cl)cc2c2nc(-c3ccco3)nn12,inactive: 1
5,CC(C)OC(=O)C(C)(C)Oc1ccc(C(=O)c2ccc(Cl)cc2)cc1 [Fenofibrate],inactive: 1
6,Cc1ccc(S(=O)(=O)NC(=O)NN2CCCCCC2)cc1 [Tolazamide],inactive: 0
7,CCCCc1oc2ccccc2c1C(=O)c1cc(I)c(OCCN(CC)CC)c(I)c1 [Amiodarone hydrochloride],inactive: 0
8,CC[N+](C)(C)c1cccc(O)c1 [Edrophonium chloride],inactive: 0
9,Nc1nc2c(ncn2COC(CO)CO)c(=O)[nH]1 [Ganciclovir],inactive: 0
10,Cc1cc(C)c(/C=C2\C(=O)Nc3ccccc32)[nH]1,active: 2
11,Cc1cnc(C(=O)NCCc2ccc(S(=O)(=O)NC(=O)NC3CCCCC3)cc2)cn1 [Glipizide],inactive: 0
12,Cn1cnc2c(NCc3ccccc3)nc(NCCO)nc21 [Olomoucine],inactive: 0
13,CC1COc2c(N3CCN(C)CC3)c(F)cc3c(=O)c(C(=O)O)cn1c23 (centres undefined) [Ofloxacin],inactive: 0
14,Cc1cc(C(C)(C)C)cc(C)c1CC1=NCCN1 [Xylometazoline hydrochloride],inactive: 0
15,C#C[C@]1(O)CC[C@H]2[C@@H]3CCC4=Cc5oncc5C[C@]4(C)[C@H]3CC[C@@]21C [Danazol],inactive: 0
16,CC(C)Cn1cnc2c(N)nc3ccccc3c21 [Imiquimod],inactive: 0
17,CC(=O)CCCCn1c(=O)c2c(ncn2C)n(C)c1=O [Pentoxifylline],inactive: 0

row,Compound,neuronal differentiation score
1,Nc1ncnc2c1ncn2C1CCCO1 (centres undefined),inactive: 0
2,CC(=O)O[C@]1(C(C)=O)CC[C@H]2[C@@H]3C=C(Cl)C4=CC(=O)[C@@H]5C[C@@H]5[C@]4(C)[C@H]3CC[C@@]21C [Cyproterone acetate],inactive: 0
3,C1CCC(N=C(NC23CC4CC(CC(C4)C2)C3)N2CCOCC2)CC1,inactive: 0
4,COc1cccc(-c2cc(=O)c3ccccc3o2)c1N,inactive: 0
5,CCCCCCC(=O)OC1CC(C)(C)NC(C)(C)C1 [TMPH hydrochloride],inactive: 0
6,CCN(CC)CC(=O)Nc1c(C)cccc1C [Lidocaine hydrochloride],inactive: 0
7,NC1CCN(c2cccc(Cl)n2)CC1,inactive: 0
8,CCCc1c(OCCCOc2ccc(OCC(=O)O)cc2)ccc(C(C)=O)c1O,inactive: 1
9,COc1ccc(-c2ccc(=N)n(CCCC(=O)O)n2)cc1,inactive: 0
10,COCC(=O)O[C@]1(CCN(C)CCCc2nc3ccccc3[nH]2)CCc2cc(F)ccc2[C@@H]1C(C)C [Mibefradil dihydrochloride],inactive: 0
11,CCOC(=O)C(C)(C)Oc1ccc(Cl)cc1 [Clofibrate],inactive: 0
12,CN(C)CCCO[C@@H]1[C@H]2OC(C)(C)O[C@H]2O[C@@H]1[C@H](O)CO [Amiprilose hydrochloride],inactive: 0
13,N=C(N)N1CCc2ccccc2C1 [Debrisoquin sulfate],inactive: 0
14,C=C[C@@]1(C)CC(=O)[C@]2(O)[C@@]3(C)[C@@H](O)CCC(C)(C)[C@@H]3[C@H](O)[C@H](OC(C)=O)[C@@]2(C)O1 [Forskolin],inactive: 0
15,O=C(OCCN1CCCCC1)c1c[nH]c2ccccc12,inactive: -1
16,CCCCC1C(=O)N(c2ccccc2)N(c2ccccc2)C1=O [Phenylbutazone],inactive: -1
17,C[C@H](CS)C(=O)N1CCC[C@H]1C(=O)O [Captopril],inactive: 0

# Sorted by SMILES length (smallest number first): some entries from above
row,Compound,neuronal differentiation score
13,N=C(N)N1CCc2ccccc2C1 [Debrisoquin sulfate],inactive: 0
1,Nc1ncnc2c1ncn2C1CCCO1 (centres undefined),inactive: 0
3,C1CCC(N=C(NC23CC4CC(CC(C4)C2)C3)N2CCOCC2)CC1,inactive: 0
